Source: article PMC8217770
No constants are given. Whether binding was seen depends on the method and setting. In cells and extracts the contact can be indirect. Some entries that bind do so weakly or less than the wild type. For some assays here: Sequences can lack the tags named with a protein.

Amino acid sequences for entries named in this document (tags omitted).
UniProt P14618: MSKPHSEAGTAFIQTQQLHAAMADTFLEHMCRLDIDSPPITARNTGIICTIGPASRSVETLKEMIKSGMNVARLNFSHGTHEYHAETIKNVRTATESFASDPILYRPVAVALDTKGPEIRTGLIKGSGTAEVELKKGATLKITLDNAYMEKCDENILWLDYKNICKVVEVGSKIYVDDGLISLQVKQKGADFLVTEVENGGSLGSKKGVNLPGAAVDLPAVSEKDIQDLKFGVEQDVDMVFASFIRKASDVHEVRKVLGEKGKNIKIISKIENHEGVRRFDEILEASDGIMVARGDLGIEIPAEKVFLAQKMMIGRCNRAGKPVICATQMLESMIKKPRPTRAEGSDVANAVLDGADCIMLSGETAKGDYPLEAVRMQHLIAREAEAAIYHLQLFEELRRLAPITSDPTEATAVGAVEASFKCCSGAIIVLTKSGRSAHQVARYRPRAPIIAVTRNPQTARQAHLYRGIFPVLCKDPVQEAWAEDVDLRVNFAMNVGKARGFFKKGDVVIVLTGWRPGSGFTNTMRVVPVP

What was measured:
[1] = target: T1, His-tagged NEK2 (NIMA-related kinase 2), expressed in 293T (human) (UniProt P51955); experiment: co-IP; 293T cells transfected with His-NEK2 and Flag-PKM2 plasmids, harvested after 48 hours; anti-Flag M2 magnetic beads and 6X His antibody; western blot
T1 sequence: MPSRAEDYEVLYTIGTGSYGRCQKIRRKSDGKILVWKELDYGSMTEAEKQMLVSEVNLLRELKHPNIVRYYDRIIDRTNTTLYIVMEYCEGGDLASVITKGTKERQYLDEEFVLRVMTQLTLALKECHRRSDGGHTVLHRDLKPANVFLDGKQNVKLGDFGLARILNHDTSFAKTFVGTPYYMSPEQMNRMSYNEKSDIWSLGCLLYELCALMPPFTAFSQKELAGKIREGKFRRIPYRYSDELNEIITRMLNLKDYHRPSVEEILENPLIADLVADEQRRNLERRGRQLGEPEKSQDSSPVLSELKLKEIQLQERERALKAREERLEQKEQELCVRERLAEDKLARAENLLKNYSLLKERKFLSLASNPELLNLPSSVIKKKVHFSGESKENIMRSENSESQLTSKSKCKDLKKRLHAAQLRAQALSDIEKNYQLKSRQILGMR

[2] = target: T2, NEK2 (NIMA-related kinase 2), endogenous (human (endogenous in OCI-Ly3 and SU-DHL-4)) (UniProt P51955); experiment: co-IP; endogenous IP from OCI-Ly3 and SU-DHL-4 lysates with antibodies against NEK2 or PKM2, normal mouse IgG as negative control; protein A/G PLUS agarose; western blot
T2 sequence: T1 sequence

| binding [1] | binding [2] | Substance |
| --- | --- | --- |
| binds |  | Flag-tagged PKM2 (from UniProt P14618 1-531) (enzyme) |
|  | binds | PKM2, endogenous (from UniProt P14618 1-531) (enzyme) |
